Results reported in PubChem BioAssay AID493014 (National Center for Advancing Translational Sciences (NCATS), 2011).
About 170 (0.05%) of roughly 340,000 compounds were called active. The shares of active, inactive and inconclusive entries below differ from those in the screen. The call rests on the fitted dose curve; in most records, active means well fitted inhibition curve with a large enough effect in the signal ratio, with a control signal flat (not every such curve was filed as active); inconclusive means small, poorly fitted or top-dose-only effect, or effect the other way, or a change in a side signal; inactive means flat fitted curve, though single readings scatter; the % refers to the signal ratio. Potencies beside an inconclusive call are fits to weak or partial responses and may not hold up.
Potency means the concentration at half of the fitted maximal effect.

Test: qHTS Assay to Find Inhibitors of Chronic Active B-Cell Receptor Signaling;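 on activity change, negative = inhibition: plate controls were basal doxycycline-induced cells for no effect and cells given 10 µM MG132 for full effect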
Details: ABC-DLBCL IkBa-CBG/CBR reporter, luminescence ratio (green luciferase fused to IkBa over red control in TMD8 lymphoma cells), 4 h; activity change, negative = inhibition: at 46.1 µM (top of the series) unless noted
How it was run: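 Concentration-response series (up to 46 uM) were applied to TMD8 dual-reporter cells for 4 h at 37C with doxycycline. Green/red ratio, after filter-overlap correction, defined %Activity; red signal alone was normalised to basal cells and zero luminescence.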
In the case of `Cc1cc(C(F)(F)F)nn1CC(=O)N1CCOCC1`, the activity change, negative = inhibition is reported as inconclusive: -1.29%.
For `CCCCNC(=S)NNC(=O)c1csc(C)c1C`, the activity change, negative = inhibition was inconclusive: -8.33%.
For `Cc1ccc(-c2nnc(NC(=O)c3ccc([N+](=O)[O-])o3)o2)c(C)c1`, the activity change, negative = inhibition was “inactive”.
For `C[C@@H](CO)NC(=O)c1ccc2c3n(nc2c1)-c1ccccc1CO3`, the activity change, negative = inhibition was “inactive”.
In the case of `CC1(C)CC(=O)C=C(Nc2ccc(OCC(F)(F)C(F)F)cc2)C1`, the activity change, negative = inhibition is reported as inconclusive: 4.72%.
For `CCN(CC)C(=O)C1CCCN(c2ccc([N+](=O)[O-])cc2/C=N/NC(=O)c2ccc([N+](=O)[O-])cc2)C1` (stereo unspecified), the activity change, negative = inhibition was “inactive”.
In the case of `Cc1ccc(S(=O)(=O)N2CCOCC2)cc1C(=O)Nc1ccc(N2CCCCCC2)cc1`, the Potency is reported as inconclusive: 18.4 µM [falling, partial curve].
For `CCOC(=O)c1cc(-c2ccc(OC)cc2)n(CCC(=O)Nc2cccc(C)c2C)c1C`, the activity change, negative = inhibition was “inactive”.
For `Cc1ccc(S(=O)(=O)n2c(CN3CCCC(C)C3)nc3ccccc32)cc1` (stereo unspecified), the activity change, negative = inhibition was inconclusive: 21.9%.
With `Cc1nn(Cc2ccc(Cl)cc2Cl)c(Cl)c1/C=C/C(=O)OCC(=O)NCC(F)(F)F` the activity change, negative = inhibition was inconclusive: 12.6%.
In the case of `CCOc1ccc(N(CC(=O)NCc2ccccc2)S(=O)(=O)c2ccc(C)cc2)cc1`, the activity change, negative = inhibition is reported as inconclusive: 11.2%.
In the case of `CCc1ccc2oc(C(=O)Nc3cccnc3)c(C)c2c1`, the activity change, negative = inhibition is reported as “inactive”.
With `Cc1cc(C)n(CC(=O)NN)n1` the Potency was inconclusive: 17.8 µM [falling, partial curve, poor fit].
With `COc1ccccc1C(=O)Nc1ccc2c(c1)nc(CCNC(=O)c1ccco1)n2C` the Potency was inconclusive: 3.98 µM [falling, partial curve].
With `COc1ccccc1NC(=S)N(Cc1ccco1)Cc1cc2cccc(C)c2[nH]c1=O` the activity change, negative = inhibition was “inactive”.
For `CC(SCc1ccccc1)C(=O)Nc1ccccc1F` (stereo unspecified), the activity change, negative = inhibition was “inactive”.
For `CCOC(=O)N1CCN(CCC(=O)c2ccc(OC)cc2)CC1`, the activity change, negative = inhibition was inconclusive: 29.3%.
For `COc1cccc(/C=N/NC(=O)c2cccc([N+](=O)[O-])c2)c1OS(=O)(=O)c1ccccc1`, the activity change, negative = inhibition was inconclusive: -18.1%.
With `Cc1ccc(NC(=O)CSc2nc(N)cc(=O)[nH]2)cc1S(=O)(=O)N1CCCCC1` the activity change, negative = inhibition was inconclusive: 1.72%.
With `CCc1noc(C)c1C(=O)Nc1nc(-c2ccc(Cl)cc2Cl)cs1` the activity change, negative = inhibition was “inactive”.
In the case of `CCC(=O)N1CCN(c2ccccc2NC(=O)COc2ccccc2Cl)CC1`, the activity change, negative = inhibition is reported as inconclusive: 13.7%.
In the case of `COc1ccc(C2C=C(c3ccccc3)Nc3nnnn32)cc1` (stereo unspecified), the activity change, negative = inhibition is reported as inconclusive: 8.15%.
With `CCCc1nc2ccccc2c(C(=O)OCC(=O)NCc2ccc3c(c2)OCO3)c1CC` the activity change, negative = inhibition was inconclusive: -12.2%.
In the case of `O=C(NC1CCCCCC1)c1nc2ncccn2n1`, the activity change, negative = inhibition is reported as “inactive”.
In the case of `Cc1ccccc1-c1nsc(SCC(=O)NCc2ccc3c(c2)OCO3)n1`, the activity change, negative = inhibition is reported as inconclusive: -12%.
With `COc1ccccc1NS(=O)(=O)c1cc(NC(=O)c2ccncc2)ccc1N1CCCC1` the Potency was inconclusive: 3.16 µM [falling, partial curve, poor fit].
With `CC(=O)c1cccc(N/C=C\C(=O)c2ccc(C)cc2)c1` the Potency was inconclusive: 16.4 µM [falling, single point].
For `Cc1cc(N2CCN(C(=O)c3ccco3)CC2)n2nc(-c3cccc(F)c3)cc2n1`, the activity change, negative = inhibition was “inactive”.
For `CCOC(=O)c1ccccc1NC(=O)CN(c1ccc(OCC)cc1)S(C)(=O)=O`, the activity change, negative = inhibition was “inactive”.
With `CC(C)C(=O)Nc1nnc(SCC(=O)Nc2ccc3c(c2)OCO3)s1` the activity change, negative = inhibition was “inactive”.
With `COc1ccc(N(CC(C)C)S(=O)(=O)c2nnc(NC(=O)c3ccco3)s2)cc1` the activity change, negative = inhibition was “inactive”.
With `Cc1[nH]c2ccccc2c1/C=C/C(=O)c1ccccc1` the Potency was inconclusive: 32.6 µM [falling, partial curve, poor fit].
With `Cc1noc(C)c1COc1ccccc1C(=O)N(C)Cc1ccc(C(C)(C)C)cc1` the Potency was inconclusive: 29.1 µM [falling, single point].
With `CC(NCc1cc(Br)ccc1OCC(N)=O)C12CC3CC(CC(C3)C1)C2` (stereo unspecified) the activity change, negative = inhibition was “inactive”.
With `O=C(CCN1CCN(CCO)CC1)Nc1ccc(C2CCCC2)cc1` the activity change, negative = inhibition was “inactive”.
For `CCC1SC(CC)C(=O)N(CC(=O)NCCc2ccccc2)C1=O` (stereo unspecified), the activity change, negative = inhibition was “inactive”.
For `CCOC(=O)C1CCCN(Cc2cc(OC)c(O)c(OC)c2)C1` (stereo unspecified), the activity change, negative = inhibition was inconclusive: 3.86%.
With `COc1ccccc1N=c1oc2cc(O)ccc2cc1C(=O)NCC1CCCO1` (stereo unspecified) the Potency was inconclusive: 17.8 µM [falling, partial curve].
With `CCN(CC)c1ccc(NC(=S)NC(=O)c2cccs2)cc1` the activity change, negative = inhibition was inconclusive: -15.3%.
With `N/C(=N\OC(=O)Cc1ccccc1)c1ccncc1` the activity change, negative = inhibition was inconclusive: 5.55%.
With `COc1ccc(-c2nn(Cc3ccccc3)cc2C(=O)N2CCN(c3ncccn3)CC2)cc1OC` the activity change, negative = inhibition was inconclusive: -0.395%.
For `Cc1ccc(S(=O)(=O)Oc2ccc(/C=C(/NC(=O)c3ccccc3)C(=O)NCC(=O)O)cc2)cc1`, the activity change, negative = inhibition was inconclusive: 20.6%.
In the case of `Nc1nnc(CSCc2ccc(Cl)cc2Cl)s1`, the activity change, negative = inhibition is reported as inconclusive: -23.8%.
For `CCC(c1nnnn1Cc1ccco1)N1CCN(c2cc(Cl)ccc2C)CC1` (stereo unspecified), the activity change, negative = inhibition was “inactive”.
For `CCOC(=O)c1c(NC(=S)N2CCCCC2)sc2c1CCN(C(=O)OCC)C2`, the Potency was inconclusive: 12.6 µM [falling, partial curve].
With `Cc1cccc2nc(-c3ccco3)c(Nc3ccc4c(c3)OCCO4)n12` the activity change, negative = inhibition was “inactive”.
For `CCOC(=O)c1cnc(-n2nc(C)cc2C)nc1Nc1ccc(C)cc1`, the activity change, negative = inhibition was “inactive”.
In the case of `CCc1ccccc1NC(=O)CNC(=O)CCc1nc2sc3c(c2c(=O)[nH]1)CCCC3`, the Potency is reported as inconclusive: 29.1 µM [falling, single point].
For `CCN(CC)S(=O)(=O)c1cccc(C(=O)NC(C(=O)NCCc2ccccn2)C(C)C)c1` (stereo unspecified), the activity change, negative = inhibition was inconclusive: -0.592%.
In the case of `COc1ccc(NC(=S)N2CCN(C(c3ccccc3)c3ccccc3)CC2)c(OC)c1`, the Potency is reported as inconclusive: 17.8 µM [rising, single point].
With `O=C(COC(=O)c1ccccc1OC(F)F)Nc1ccc2[nH]c(=O)[nH]c2c1` the activity change, negative = inhibition was inconclusive: 13.8%.
With `CN(C)C(=O)c1cnc(Sc2ncc(C(F)(F)F)cc2Cl)n1C` the activity change, negative = inhibition was inconclusive: -2.51%.
With `COc1cc(/C=C2\SC(=Nc3ccccc3)N(Cc3ccco3)C2=O)ccc1OC(C)C(=O)O` (stereo unspecified) the activity change, negative = inhibition was inconclusive: -13.2%.
For `C=CCNC(=S)NNC(=O)C(CCC(C)C)CC(C)(C)O` (stereo unspecified), the activity change, negative = inhibition was inconclusive: 3.95%.
In the case of `Cc1nc(NCCCn2ccnc2)c2ccccc2n1`, the activity change, negative = inhibition is reported as “inactive”.
For `COc1ccc(OC)c(NC(=O)c2cc3oc4ccccc4c3cc2O)c1`, the activity change, negative = inhibition was inconclusive: -7.91%.
With `CCC(C(=O)NC1CCCCC1)N(Cc1cccs1)C(=O)CCC(=O)Nc1cc(C)on1` (stereo unspecified) the activity change, negative = inhibition was inconclusive: -13.4%.
With `Cc1ccc2c(c1)-n1c(nc3ccc(C)cc3c1=O)C(Cc1ccccc1)NC2=O` (stereo unspecified) the Potency was inconclusive: 32.6 µM [falling, partial curve, poor fit].
With `CN1CCN(C(=S)NC(=O)c2ccc(-c3ccccc3)cc2)CC1` the activity change, negative = inhibition was inconclusive: -9.38%.
With `CCOC(=O)Cc1csc(Nc2ccc(Cl)cc2)n1` the activity change, negative = inhibition was inconclusive: 12.1%.
For `COc1ccc(NS(=O)(=O)c2cc(NC(=O)[C@@H](NC(=O)c3ccccc3)C(C)C)ccc2C)cc1`, the activity change, negative = inhibition was “inactive”.
For `COc1ccc(CN(C)C(=O)c2ccc3c(=O)n4c(nc3c2)CCC4)c(OC)c1`, the Potency was inconclusive: 25.9 µM [falling, single point].
In the case of `C=CCn1c(SCC(=O)C(C)(C)C)nnc1-c1ccccn1`, the activity change, negative = inhibition is reported as “inactive”.
For `Cc1ccccc1S(=O)(=O)NC1OC(=O)C(Oc2ccccc2)=C1Br` (stereo unspecified), the Potency was inconclusive: 35.5 µM [rising, partial curve, poor fit].
For `CC1=Nc2ccccc2/C1=C/c1nc(-c2ccc(C)s2)oc1O`, the activity change, negative = inhibition was “inactive”.
With `COc1cc([C@@H]2[C@H]3CNCC=C3C(C#N)=C(N)C2(C#N)C#N)ccc1OC(C)C` the activity change, negative = inhibition was inconclusive: 14.6%.
In the case of `COc1cc2c(cc1NC(=O)CCCCCN1C(=O)CCC1=O)oc1ccccc12`, the Potency is reported as inconclusive: 29.1 µM [rising, partial curve, poor fit].
In the case of `S=C(Nc1ccc(Br)cc1)N1CCn2cccc2C1c1cccnc1` (stereo unspecified), the activity change, negative = inhibition is reported as inconclusive: 9.89%.
With `Cc1ccc(NC(=S)N/N=C/c2c(C)[nH]c3ccccc23)cc1` the Potency was inconclusive: 28.2 µM [falling, single point].
With `O=S(=O)(NCCc1ccncc1)c1cc(Br)ccc1F` the activity change, negative = inhibition was inconclusive: 1.73%.
In the case of `COc1ccc2c(c1)C(=O)N1[C@H]3c4cc(Cl)ccc4OC[C@@H]3[C@H](c3ccccc3)[C@]1(C)C(=O)N2`, the activity change, negative = inhibition is reported as inconclusive: -1.97%.
For `COc1ccccc1N1CCN(C(=O)CSc2ncccc2-c2nc3ccccc3[nH]2)CC1`, the Potency was inconclusive: 3.66 µM [falling, full curve].
For `COc1ccc(C(=O)O)c(OC)n1`, the activity change, negative = inhibition was inconclusive: 7.11%.
With `CC(C)COc1cccc(C(=O)Nc2ccc(N3CCOCC3)cc2N2CCOCC2)c1` the activity change, negative = inhibition was inconclusive: -10%.
For `O=C(Nc1ccc2ccccc2c1)c1cnccn1`, the Potency was inconclusive: 13 µM [falling, partial curve].
In the case of `Cc1noc(/C=C/NCc2cccnc2)c1S(=O)(=O)N(C)CC(=O)N1CCc2ccccc21`, the activity change, negative = inhibition is reported as inconclusive: -18.6%.
With `COc1ccc(C2NC3=C(CCC3)C3(C#N)C(OC)(OC)N=C(N)C23C#N)cc1` (stereo unspecified) the activity change, negative = inhibition was inconclusive: 17.3%.
With `COc1ccc(C2C(C(=O)c3cccs3)=C(O)C(=O)N2c2cccc(C)n2)cc1OC` (stereo unspecified) the activity change, negative = inhibition was inconclusive: 7.16%.
With `CC(OC(=O)CCc1nc2ccccc2c(=O)[nH]1)C(=O)Nc1cccc(C(F)(F)F)c1` (stereo unspecified) the activity change, negative = inhibition was inconclusive: -1.97%.
In the case of `COc1ccc(NC(=O)COC(=O)C2CC2)cc1S(=O)(=O)N1CCCCC1`, the activity change, negative = inhibition is reported as “inactive”.
For `COc1ccc(C(=O)Nc2ccc(Cl)cc2F)cc1S(=O)(=O)N1CCCC1`, the activity change, negative = inhibition was “inactive”.
